These results are taken from PMC8531447.

Test [1] addresses T1, FLAG-Npas4 (from pBOS-3FLAG-Npas4) (mouse) (UniProt Q8BGD7).
T1 sequence: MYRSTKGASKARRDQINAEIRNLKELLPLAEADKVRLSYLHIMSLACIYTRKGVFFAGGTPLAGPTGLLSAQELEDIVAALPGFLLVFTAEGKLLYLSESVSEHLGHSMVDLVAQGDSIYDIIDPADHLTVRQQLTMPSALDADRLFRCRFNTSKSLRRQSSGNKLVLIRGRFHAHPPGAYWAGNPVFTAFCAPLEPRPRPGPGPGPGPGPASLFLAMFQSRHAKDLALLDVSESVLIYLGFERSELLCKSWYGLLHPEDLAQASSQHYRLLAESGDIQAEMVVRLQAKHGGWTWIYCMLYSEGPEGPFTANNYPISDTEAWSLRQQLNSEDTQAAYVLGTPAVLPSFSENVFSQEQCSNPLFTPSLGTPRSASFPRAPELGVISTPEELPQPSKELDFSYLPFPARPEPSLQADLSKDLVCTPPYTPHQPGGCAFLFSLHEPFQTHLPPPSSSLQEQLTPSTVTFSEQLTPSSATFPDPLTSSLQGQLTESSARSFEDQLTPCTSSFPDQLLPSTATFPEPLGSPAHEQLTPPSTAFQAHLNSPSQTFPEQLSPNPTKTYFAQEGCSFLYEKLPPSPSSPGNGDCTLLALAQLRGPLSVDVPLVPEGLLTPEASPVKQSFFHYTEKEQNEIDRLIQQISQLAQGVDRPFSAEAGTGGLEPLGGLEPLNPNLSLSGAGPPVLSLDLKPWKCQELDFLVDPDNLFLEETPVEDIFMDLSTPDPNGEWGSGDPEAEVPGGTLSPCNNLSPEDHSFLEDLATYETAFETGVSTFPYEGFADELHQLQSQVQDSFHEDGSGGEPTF
Description: co-IP; HEK293T cells co-transfected with Myc-IPAS and FLAG-Npas4 plasmids or their deletions; extracts 48 h after transfection; immunoprecipitation with anti-FLAG antibody, immunoblotting with anti-Myc antibody. A general note: In western blotting, separated proteins are transferred to a membrane and probed.

The target in test [2] is T2, Npas4 segment (amino acids 496-668), deletion mutant of FLAG-Npas4 (mouse) (UniProt Q8BGD7).
T2 sequence: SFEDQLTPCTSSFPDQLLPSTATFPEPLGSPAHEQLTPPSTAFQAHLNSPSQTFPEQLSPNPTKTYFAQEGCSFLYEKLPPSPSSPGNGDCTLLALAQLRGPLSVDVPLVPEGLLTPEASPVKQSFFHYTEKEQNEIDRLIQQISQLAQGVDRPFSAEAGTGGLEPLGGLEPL
The test is described as above.

In a further test the target is FLAG-IPAS (mouse). Put plainly: co-IP; HEK293T cells transfected with FLAG-IPAS alone; extracts 48 h after transfection; immunoprecipitation with anti-FLAG antibody, immunoblotting for endogenous Npas4 with anti-Npas4 antibody.

No constants are given. Whether binding was seen depends on the method and setting. In cells and extracts the contact can be indirect. Binding can be weak; no strength is given. For some assays here: Where a sequence is shown, tags or fusion partners need not be part of it.

On to “IPAS C (C-terminal deletion mutant of Myc-IPAS) (mouse) (domain or fragment)”, for which the binding entry in test [1] is given as “binds”. Still for that read-out and setting: in the case of “IPAS N (N-terminal deletion mutant of Myc-IPAS) (mouse) (domain or fragment)” it was “binds”. As to “Myc-IPAS (inhibitory PAS domain protein, from pBOS-3Myc-IPAS) (mouse)”, the binding entry in test [1] and in test [2] was “binds” in each case.

B1: endogenous Npas4 of HEK293T cells (protein, UniProt Q8IUM7 1-802)
chain: MYRSTKGASKARRDQINAEIRNLKELLPLAEADKVRLSYLHIMSLACIYTRKGVFFAGGTPLAGPTGLLSAQELEDIVAALPGFLLVFTAEGKLLYLSESVSEHLGHSMVDLVAQGDSIYDIIDPADHLTVRQQLTLPSALDTDRLFRCRFNTSKSLRRQSAGNKLVLIRGRFHAHPPGAYWAGNPVFTAFCAPLEPRPRPGPGPGPGPASLFLAMFQSRHAKDLALLDISESVLIYLGFERSELLCKSWYGLLHPEDLAHASAQHYRLLAESGDIQAEMVVRLQAKTGGWAWIYCLLYSEGPEGPITANNYPISDMEAWSLRQQLNSEDTQAAYVLGTPTMLPSFPENILSQEECSSTNPLFTAALGAPRSTSFPSAPELSVVSASEELPRPSKELDFSYLTFPSGPEPSLQAELSKDLVCTPPYTPHQPGGCAFLFSLHEPFQTHLPTPSSTLQEQLTPSTATFSDQLTPSSATFPDPLTSPLQGQLTETSVRSYEDQLTPCTSTFPDQLLPSTATFPEPLGSPAHEQLTPPSTAFQAHLDSPSQTFPEQLSPNPTKTYFAQEGCSFLYEKLPPSPSSPGNGDCTLLALAQLRGPLSVDVPLVPEGLLTPEASPVKQSFFHYSEKEQNEIDRLIQQISQLAQGMDRPFSAEAGTGGLEPLGGLEPLDSNLSLSGAGPPVLSLDLKPWKCQELDFLADPDNMFLEETPVEDIFMDLSTPDPSEEWGSGDPEAEGPGGAPSPCNNLSPEDHSFLEDLATYETAFETGVSAFPYDGFTDELHQLQSQVQDSFHEDGSGGEPTF
In the case of B1, the binding result with FLAG-IPAS (mouse) is listed as “binds”.
